According to publication PMC8688910:

Target: T1, C-terminal domain of IpaH1.4 (IpaH-CTD), N-terminally his6-tagged, produced in CFPS (S. flexneri 2a), A0A0H2
T1 chain: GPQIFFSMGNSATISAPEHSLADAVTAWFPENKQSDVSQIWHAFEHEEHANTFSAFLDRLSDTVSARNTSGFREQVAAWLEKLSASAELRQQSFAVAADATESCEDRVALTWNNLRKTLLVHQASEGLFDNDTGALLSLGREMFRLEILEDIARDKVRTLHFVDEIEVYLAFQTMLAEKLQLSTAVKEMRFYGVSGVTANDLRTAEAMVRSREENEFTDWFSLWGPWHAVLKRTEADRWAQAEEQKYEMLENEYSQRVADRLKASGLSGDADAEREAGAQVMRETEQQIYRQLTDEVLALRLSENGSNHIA
Assay: SEC-MALS; Superdex75 10/30 GL, 50 mM Tris pH 8, 150 mM NaCl, 0.5 mL/min, column 25 °C, about 50-100 μg injected; both purified
Conditions: remark: other sources report otherwise

B1: C-terminal domain of IpaH1.4 (IpaH-CTD), N-terminally his6-tagged, produced in CFPS, A0A0H2USG1 265-575 (domain or fragment)
chain: GPQIFFSMGNSATISAPEHSLADAVTAWFPENKQSDVSQIWHAFEHEEHANTFSAFLDRLSDTVSARNTSGFREQVAAWLEKLSASAELRQQSFAVAADATESCEDRVALTWNNLRKTLLVHQASEGLFDNDTGALLSLGREMFRLEILEDIARDKVRTLHFVDEIEVYLAFQTMLAEKLQLSTAVKEMRFYGVSGVTANDLRTAEAMVRSREENEFTDWFSLWGPWHAVLKRTEADRWAQAEEQKYEMLENEYSQRVADRLKASGLSGDADAEREAGAQVMRETEQQIYRQLTDEVLALRLSENGSNHIA
  binding: no binding

These are yes or no findings as the source states them, for the method shown. Where a sequence is shown, tags or fusion partners need not be part of it.
